These are yes or no findings as the source states them, for the method shown. Some binding calls cover weakened binding; strength is not graded here. Where a sequence is shown, tags or fusion partners need not be part of it.
What was measured:
[1] = molecular target: T1, human protooncogene KG-19 protein product, as LexA fusion (bait) (human) (UniProt Q8WY22); assay: yeast two-hybrid (LexA system), colony lifting assay, lacZ reporter on X-gal; KG-19 as LexA bait, KG-20 clone from AD fusion library
T1 sequence (looked up): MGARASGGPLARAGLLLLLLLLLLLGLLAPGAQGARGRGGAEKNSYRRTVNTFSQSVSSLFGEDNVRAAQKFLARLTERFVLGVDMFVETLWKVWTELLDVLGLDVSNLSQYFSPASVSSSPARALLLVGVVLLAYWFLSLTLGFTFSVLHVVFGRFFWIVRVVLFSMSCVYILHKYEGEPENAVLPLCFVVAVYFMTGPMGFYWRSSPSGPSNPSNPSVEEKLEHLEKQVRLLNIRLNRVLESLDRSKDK

[2] = molecular target: T1, human protooncogene KG-19 protein product, as LexA fusion (bait) (human); assay: yeast two-hybrid screen

- binding [1]: binds
- binding [2]: binds
B1: KG-20 protein (product of human protooncogene KG-20), as activation-domain fusion clone from a human fetal brain library (protein, not shown: large carriers)
chain: MTLDNINLAAVDRIIRVDHAGEYGANRIYAGQMAVLGRTSVGPVIQKMWDQEKDHLKKFNELMVMFRVRPTVLMPLWNVLGFALGAGTALLGKEGAMACTVAVEESIAHHYNNQIRTLMEEDPEKYEELLQLIKKFRDEELEHHDIGLDHDAELAPAYAVLKSIIQAGCRVAIYLSERL
